Laboratory results reported in patent publication US7273694B2, “Method and apparatus for reducing pathogens in a biological sample” (Safety Art, LLC, priority 2001, dated 2007).
At least one compound was matched to its structure with a doubt left.

Tested on: Campylobacter fetus
Assay: Antibiotic sensitivity of bacterial isolate
Format: cell-based
Details: laboratory isolate [4914]

For NC[C@H]1O[C@H](O[C@H]2[C@H](O)[C@@H](O[C@H]3O[C@H](CO)[C@@H](O)[C@H](N)[C@H]3O)[C@H](N)C[C@@H]2N)[C@H](O)[C@@H](O)[C@@H]1O [kanamycin], the “sensitivity of C. fetus to antibiotic” value was “sensitive”.
